From the supplement of paper PMC10849652
Some of the results follow.

Amino acid sequences for entries named in this document (tags omitted). A change or cut given only in a name is not applied to a line headed by its entry.
UniProt Q86TN4: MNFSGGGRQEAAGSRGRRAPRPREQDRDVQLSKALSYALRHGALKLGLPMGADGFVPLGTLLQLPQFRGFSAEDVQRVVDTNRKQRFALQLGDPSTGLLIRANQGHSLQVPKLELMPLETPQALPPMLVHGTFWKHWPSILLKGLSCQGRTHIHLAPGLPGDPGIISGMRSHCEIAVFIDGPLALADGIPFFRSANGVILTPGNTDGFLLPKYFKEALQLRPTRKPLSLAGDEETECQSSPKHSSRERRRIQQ
UniProt Q9C037: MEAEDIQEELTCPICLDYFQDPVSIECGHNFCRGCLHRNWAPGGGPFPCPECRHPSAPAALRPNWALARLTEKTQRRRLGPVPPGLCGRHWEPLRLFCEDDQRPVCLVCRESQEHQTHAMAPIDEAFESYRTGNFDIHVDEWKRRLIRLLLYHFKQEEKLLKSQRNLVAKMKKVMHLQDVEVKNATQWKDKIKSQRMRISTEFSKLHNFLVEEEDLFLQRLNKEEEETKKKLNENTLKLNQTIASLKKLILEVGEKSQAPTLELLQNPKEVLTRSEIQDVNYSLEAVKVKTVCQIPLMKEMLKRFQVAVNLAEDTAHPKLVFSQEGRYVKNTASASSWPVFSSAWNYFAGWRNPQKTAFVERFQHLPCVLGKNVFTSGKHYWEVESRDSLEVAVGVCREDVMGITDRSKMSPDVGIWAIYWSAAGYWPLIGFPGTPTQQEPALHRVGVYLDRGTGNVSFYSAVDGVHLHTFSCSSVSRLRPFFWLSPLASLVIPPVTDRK
UniProt Q5BVD1: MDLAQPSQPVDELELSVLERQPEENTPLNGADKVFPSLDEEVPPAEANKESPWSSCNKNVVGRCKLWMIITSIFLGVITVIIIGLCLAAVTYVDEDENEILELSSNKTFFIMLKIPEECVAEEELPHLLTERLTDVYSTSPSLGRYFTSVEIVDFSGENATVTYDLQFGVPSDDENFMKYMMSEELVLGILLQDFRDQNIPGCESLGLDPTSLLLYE
UniProt Q9Y3Q8: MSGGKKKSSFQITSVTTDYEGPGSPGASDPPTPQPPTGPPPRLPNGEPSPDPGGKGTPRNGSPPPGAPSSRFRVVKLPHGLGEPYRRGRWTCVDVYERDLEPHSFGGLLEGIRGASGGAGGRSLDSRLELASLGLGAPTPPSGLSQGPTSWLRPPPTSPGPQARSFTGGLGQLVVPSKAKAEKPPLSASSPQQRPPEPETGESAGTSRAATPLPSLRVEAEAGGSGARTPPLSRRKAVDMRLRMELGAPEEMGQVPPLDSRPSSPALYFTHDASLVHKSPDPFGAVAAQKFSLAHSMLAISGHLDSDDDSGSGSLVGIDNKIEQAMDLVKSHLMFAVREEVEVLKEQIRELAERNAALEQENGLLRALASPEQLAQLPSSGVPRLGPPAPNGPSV
UniProt Q9Y4K3: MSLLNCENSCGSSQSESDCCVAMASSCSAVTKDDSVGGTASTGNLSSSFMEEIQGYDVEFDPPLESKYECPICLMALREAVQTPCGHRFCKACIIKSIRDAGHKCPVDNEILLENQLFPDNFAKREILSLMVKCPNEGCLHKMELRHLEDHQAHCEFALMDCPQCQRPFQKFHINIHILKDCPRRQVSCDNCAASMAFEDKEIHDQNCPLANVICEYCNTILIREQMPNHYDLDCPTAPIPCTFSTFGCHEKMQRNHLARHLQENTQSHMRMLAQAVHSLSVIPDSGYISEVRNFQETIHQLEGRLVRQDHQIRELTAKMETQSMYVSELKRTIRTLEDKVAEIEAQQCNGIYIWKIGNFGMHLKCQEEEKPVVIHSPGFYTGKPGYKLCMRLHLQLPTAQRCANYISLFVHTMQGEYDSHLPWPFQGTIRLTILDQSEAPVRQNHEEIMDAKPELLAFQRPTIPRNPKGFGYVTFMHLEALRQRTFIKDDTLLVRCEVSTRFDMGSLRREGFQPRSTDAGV
UniProt Q13263: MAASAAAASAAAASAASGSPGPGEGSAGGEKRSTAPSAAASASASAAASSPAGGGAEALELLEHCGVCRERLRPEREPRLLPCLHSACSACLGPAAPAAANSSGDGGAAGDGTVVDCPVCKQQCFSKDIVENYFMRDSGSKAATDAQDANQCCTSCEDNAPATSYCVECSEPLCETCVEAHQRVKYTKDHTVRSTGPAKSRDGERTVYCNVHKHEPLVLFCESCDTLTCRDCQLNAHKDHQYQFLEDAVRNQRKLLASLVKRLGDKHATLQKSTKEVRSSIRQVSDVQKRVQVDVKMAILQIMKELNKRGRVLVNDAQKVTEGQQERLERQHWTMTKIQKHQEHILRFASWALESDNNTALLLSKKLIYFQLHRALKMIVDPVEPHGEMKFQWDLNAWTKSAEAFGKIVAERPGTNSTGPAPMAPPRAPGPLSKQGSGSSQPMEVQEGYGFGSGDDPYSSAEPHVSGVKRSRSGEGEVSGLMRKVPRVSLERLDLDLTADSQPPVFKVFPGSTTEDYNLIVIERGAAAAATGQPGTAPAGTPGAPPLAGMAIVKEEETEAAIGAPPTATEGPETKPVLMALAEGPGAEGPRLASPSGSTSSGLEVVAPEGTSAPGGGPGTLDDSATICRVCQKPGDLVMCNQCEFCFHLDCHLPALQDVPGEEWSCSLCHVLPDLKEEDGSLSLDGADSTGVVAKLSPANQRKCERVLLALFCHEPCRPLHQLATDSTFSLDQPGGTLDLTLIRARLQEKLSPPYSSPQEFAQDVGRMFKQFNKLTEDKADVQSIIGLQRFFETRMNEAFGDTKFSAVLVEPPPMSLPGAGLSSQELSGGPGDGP
UniProt Q9UJA5: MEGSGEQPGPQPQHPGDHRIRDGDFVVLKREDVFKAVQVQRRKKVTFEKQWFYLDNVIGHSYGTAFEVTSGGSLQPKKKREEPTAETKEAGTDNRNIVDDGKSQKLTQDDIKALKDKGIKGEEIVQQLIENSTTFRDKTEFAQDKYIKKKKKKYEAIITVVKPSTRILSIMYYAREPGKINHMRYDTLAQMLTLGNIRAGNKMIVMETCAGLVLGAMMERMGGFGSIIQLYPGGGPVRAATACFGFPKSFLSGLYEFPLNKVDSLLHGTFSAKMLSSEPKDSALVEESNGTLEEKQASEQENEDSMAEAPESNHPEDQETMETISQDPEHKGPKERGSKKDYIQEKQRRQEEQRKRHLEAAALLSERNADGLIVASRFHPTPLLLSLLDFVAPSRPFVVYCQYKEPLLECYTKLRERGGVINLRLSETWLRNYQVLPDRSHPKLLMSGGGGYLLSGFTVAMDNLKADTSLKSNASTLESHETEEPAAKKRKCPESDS
UniProt O43715: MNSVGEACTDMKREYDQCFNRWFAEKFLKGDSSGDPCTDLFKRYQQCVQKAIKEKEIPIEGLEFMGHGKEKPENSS
UniProt Q15650: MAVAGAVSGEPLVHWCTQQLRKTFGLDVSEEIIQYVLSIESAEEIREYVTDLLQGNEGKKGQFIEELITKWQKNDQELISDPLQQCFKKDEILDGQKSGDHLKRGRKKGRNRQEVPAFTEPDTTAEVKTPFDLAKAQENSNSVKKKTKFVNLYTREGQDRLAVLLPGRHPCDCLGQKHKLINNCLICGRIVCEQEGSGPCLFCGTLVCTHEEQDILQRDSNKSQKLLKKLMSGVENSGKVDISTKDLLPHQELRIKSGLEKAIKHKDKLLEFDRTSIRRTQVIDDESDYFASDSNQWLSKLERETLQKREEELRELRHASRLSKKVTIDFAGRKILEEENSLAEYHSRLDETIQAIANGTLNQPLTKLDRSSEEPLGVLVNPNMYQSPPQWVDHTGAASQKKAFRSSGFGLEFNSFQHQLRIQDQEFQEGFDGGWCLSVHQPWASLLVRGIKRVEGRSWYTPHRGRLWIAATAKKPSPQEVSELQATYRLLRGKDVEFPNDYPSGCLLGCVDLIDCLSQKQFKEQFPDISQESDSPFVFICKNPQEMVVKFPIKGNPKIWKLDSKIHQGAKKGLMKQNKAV
UniProt Q9H892: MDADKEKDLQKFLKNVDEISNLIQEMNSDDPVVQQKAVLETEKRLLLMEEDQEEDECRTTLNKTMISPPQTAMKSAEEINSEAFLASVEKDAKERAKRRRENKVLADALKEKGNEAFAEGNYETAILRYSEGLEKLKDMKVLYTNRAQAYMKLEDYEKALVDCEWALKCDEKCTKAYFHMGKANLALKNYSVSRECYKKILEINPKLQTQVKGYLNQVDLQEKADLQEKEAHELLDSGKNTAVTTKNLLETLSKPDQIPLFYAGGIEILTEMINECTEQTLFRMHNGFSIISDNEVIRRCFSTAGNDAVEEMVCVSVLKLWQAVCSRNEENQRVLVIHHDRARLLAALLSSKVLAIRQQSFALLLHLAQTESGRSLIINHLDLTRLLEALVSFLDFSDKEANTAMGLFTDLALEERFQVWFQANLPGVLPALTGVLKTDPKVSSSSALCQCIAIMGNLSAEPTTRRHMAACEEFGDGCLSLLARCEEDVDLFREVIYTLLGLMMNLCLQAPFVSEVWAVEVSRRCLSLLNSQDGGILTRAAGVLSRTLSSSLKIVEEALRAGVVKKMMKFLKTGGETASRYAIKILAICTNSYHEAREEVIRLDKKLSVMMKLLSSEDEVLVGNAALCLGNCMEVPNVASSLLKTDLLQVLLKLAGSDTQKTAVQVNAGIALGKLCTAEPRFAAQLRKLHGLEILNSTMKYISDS
UniProt Q6PGP7, whole entry, looked up: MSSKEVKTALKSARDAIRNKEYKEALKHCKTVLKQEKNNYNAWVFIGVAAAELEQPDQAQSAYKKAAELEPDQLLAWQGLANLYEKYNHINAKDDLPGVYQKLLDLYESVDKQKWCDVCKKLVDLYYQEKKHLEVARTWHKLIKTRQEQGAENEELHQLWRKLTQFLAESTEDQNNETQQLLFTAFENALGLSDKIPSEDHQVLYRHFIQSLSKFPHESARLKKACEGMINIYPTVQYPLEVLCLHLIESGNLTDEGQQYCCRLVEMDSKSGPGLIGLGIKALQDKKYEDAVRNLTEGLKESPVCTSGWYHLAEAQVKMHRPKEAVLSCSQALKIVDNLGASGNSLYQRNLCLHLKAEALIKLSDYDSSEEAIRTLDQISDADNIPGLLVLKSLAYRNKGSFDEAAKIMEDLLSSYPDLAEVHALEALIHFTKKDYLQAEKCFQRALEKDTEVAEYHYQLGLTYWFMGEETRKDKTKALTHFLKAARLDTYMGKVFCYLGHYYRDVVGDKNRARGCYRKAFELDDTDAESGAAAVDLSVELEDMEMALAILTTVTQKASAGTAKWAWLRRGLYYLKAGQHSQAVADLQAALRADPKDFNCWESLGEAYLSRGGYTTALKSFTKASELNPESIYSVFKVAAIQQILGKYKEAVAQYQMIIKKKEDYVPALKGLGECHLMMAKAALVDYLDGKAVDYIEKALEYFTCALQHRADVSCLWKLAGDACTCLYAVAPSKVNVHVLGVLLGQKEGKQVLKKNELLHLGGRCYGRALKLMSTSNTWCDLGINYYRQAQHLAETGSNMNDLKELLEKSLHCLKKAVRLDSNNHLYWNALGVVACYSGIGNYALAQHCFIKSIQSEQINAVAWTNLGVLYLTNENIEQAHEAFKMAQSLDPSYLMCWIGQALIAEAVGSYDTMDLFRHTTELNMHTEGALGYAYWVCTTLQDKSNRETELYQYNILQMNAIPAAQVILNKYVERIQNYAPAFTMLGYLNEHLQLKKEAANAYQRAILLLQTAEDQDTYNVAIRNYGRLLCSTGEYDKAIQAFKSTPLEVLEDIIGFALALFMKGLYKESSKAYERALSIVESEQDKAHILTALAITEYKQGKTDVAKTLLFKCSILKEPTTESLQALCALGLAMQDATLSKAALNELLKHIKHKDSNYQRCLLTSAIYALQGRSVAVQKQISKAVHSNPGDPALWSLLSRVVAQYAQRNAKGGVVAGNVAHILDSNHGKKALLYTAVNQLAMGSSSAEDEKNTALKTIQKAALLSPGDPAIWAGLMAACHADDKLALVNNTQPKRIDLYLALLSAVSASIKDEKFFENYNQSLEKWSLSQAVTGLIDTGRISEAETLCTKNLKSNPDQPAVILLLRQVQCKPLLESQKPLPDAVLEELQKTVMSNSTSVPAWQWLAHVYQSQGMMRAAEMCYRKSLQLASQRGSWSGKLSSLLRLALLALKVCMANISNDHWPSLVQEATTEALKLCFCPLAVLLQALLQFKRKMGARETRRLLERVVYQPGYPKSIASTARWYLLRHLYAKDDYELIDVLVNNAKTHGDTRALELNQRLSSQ
UniProt Q15629: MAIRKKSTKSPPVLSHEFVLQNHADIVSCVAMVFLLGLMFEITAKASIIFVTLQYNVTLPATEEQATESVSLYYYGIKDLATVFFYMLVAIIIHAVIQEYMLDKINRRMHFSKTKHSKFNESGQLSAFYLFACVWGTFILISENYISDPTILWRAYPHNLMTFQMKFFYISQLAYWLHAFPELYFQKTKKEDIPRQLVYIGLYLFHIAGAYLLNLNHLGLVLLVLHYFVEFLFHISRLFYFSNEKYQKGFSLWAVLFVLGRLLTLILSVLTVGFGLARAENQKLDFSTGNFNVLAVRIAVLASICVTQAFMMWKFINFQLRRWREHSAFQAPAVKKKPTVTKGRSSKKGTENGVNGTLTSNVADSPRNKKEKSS

Assays:
Test in all cases: log2 fold change, soluble protein after heating vs DMSO (PISA); higher = thermal stabilisation; K562 lysate, 10 uM; active = over 0.2 and 3.5 SD of the protein, either way, in both replicates (recomputed)
[1] = compound: Cc1cn(-c2cc(NC(=O)c3ccc(C)c(Nc4nccc(-c5cccnc5)n4)c3)cc(C(F)(F)F)c2)cn1 [nilotinib]
Procedure, shortened: (§1)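 Quantification was by TMTpro 16plex LC-MS/MS with equalised channel sums, applied to the supernatant after 21,000xg for 90 min. Samples were crude K562 extract at 1 mg/mL protein in PBS pH 7.4 with 1 mM MgCl2, treated with 10 μM compound for 30 min, heated for 3 min across 48°C-58°C, pooled and brought to 0.5% NP-40 at 4°C. Values are log-two fold changes in thermal stability relative to solvent controls, from duplicates.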

[2] = compound: Cc1nc(Nc2n[nH]c3c2CN(C(=O)N[C@H](CN(C)C)c2ccccc2)C3(C)C)c2sccc2n1
Procedure, shortened: as §1

[3] = compound: Cc1nc(Nc2ncc(C(=O)Nc3c(C)cccc3Cl)s2)cc(N2CCN(CCO)CC2)n1 [dasatinib]
Procedure, shortened: as §1

[4] = compound: Cc1ncc(-c2ccnc(Nc3ccc(S(C)(=O)=O)cc3)n2)n1C(C)C
Procedure, shortened: as §1

[5] = compound: Cn1cc(-c2ccc3c(c2)CCN3C(=O)Cc2cccc(C(F)(F)F)c2)c2c(N)ncnc21
Procedure, shortened: as §1

[6] = compound: Cn1cc(CNCC2CCN(c3ncc(C(=O)NO)cn3)CC2)c2ccccc21 [quisinostat]
Procedure, shortened: as §1

[7] = compound: Cn1cncc1[C@@](N)(c1ccc(Cl)cc1)c1ccc2c(c1)c(-c1cccc(Cl)c1)cc(=O)n2C [tipifarnib]
Procedure, shortened: as §1

[8] = compound: NC(=O)Nc1cc(-c2cccc(F)c2)sc1C(=O)N[C@H]1CCCNC1
Procedure, shortened: as §1

[9] = compound: NC(=O)c1cnc(N[C@@H]2CCCC[C@@H]2N)nc1Nc1cccc(-n2nccn2)c1
Procedure, shortened: as §1

[10] = compound: NC1(c2ccc(-c3nc4ccn5c(=O)[nH]nc5c4cc3-c3ccccc3)cc2)CCC1
Procedure, shortened: as §1

[11] = compound: NCC(=O)Nc1ccc(-n2nc(C(F)(F)F)cc2-c2ccc3c(ccc4ccccc43)c2)cc1
Procedure, shortened: as §1

[12] = compound: O=C(CCCCCCC(=O)Nc1ccccc1)NO [vorinostat]
Procedure, shortened: as §1

[13] = compound: O=C(O)c1ccc2c(c1)nc(Nc1cccc(Cl)c1)c1ccncc12 [silmitasertib]
Procedure, shortened: as §1

[14] = compound: O=C1NC(=O)C(c2cnc3ccccn23)=C1c1cn2c3c(cc(F)cc13)CN(C(=O)N1CCCCC1)CC2
Procedure, shortened: as §1

[15] = compound: c1cn2cc(-c3ccc4cn[nH]c4c3)nc(Nc3ccc(N4CCOCC4)cc3)c2n1 [entospletinib]
Procedure, shortened: as §1

Measured: log2 fold change

TRPT1 isoform 4 (UniProt Q86TN4)
inactive: [1] 0.025 | [2] 0.24 | [3] 0.021 | [4] 0.151 | [5] -0.057 | [6] -0.037 | [7] 0.042 | [8] 0.03 | [9] 0.13 | [10] -0.239 | [11] 0.016 | [12] 0.055 | [13] -0.037 | [14] 0.051

TRRAP (UniProt Q9Y4A5)
inactive: [1] 0.025 | [2] -0.017 | [3] -0.03 | [4] 0.039 | [5] 0.032 | [6] -0.01 | [7] -0.015 | [8] 0.047 | [9] 0.002 | [10] -0.009 | [11] -0.019 | [12] -0.179 | [13] 0.022 | [14] 0.01 | [15] 0.001

TRIM4 (UniProt Q9C037)
inactive: [1] 0.059 | [2] 0.024 | [3] -0.142 | [4] -0.027 | [5] -0.052 | [6] -0.035 | [7] -0.21 | [8] 0.086 | [9] 0.019 | [10] -0.08 | [11] 0.021 | [12] -0.144 | [13] 0.314 | [14] 0.019 | [15] 0.054

TRIP6 (UniProt Q15654)
inactive: [1] 0.023 | [2] 0.001 | [3] 0 | [4] 0.032 | [5] -0.012 | [6] -0.003 | [7] -0.007 | [8] -0.01 | [9] 0.015 | [10] -0.002 | [11] 0.021 | [12] -0.037 | [13] 0 | [14] 0.024 | [15] -0.024

TRIM11 (UniProt Q96F44)
inactive: [1] -0.019 | [2] 0.053 | [3] -0.021 | [4] 0.055 | [5] 0.023 | [6] -0.104 | [7] -0.015 | [8] -0.019 | [9] -0.004 | [10] -0.023 | [11] 0.018 | [13] 0.046 | [14] -0.035 | [15] -0.045
active: [12] -0.222

TTMP isoform 3 (UniProt Q5BVD1)
inactive: [1] 0.118 | [2] -0.023 | [3] -0.079 | [4] -0.022 | [5] -0.046 | [6] -0.475 | [7] -0.089 | [8] 0.048 | [9] 0.116 | [10] -0.113 | [11] 0.253 | [12] 0.191 | [13] -0.074 | [14] 0.167 | [15] -0.032

TRIM56 (UniProt Q9BRZ2)
inactive: [1] 0.033 | [2] 0.031 | [3] -0.073 | [4] -0.006 | [5] 0.017 | [6] -0.043 | [7] -0.048 | [8] 0.005 | [9] -0.01 | [10] 0.007 | [11] -0.022 | [13] -0.043 | [14] -0.016 | [15] -0.004
active: [12] -0.428

Taken from the listing (2 entries):
TTMP isoform 3 (UniProt Q5BVD1)
inactive: [1] 0.118 | [2] -0.023 | [3] -0.079 | [4] -0.022 | [5] -0.046 | [6] -0.475 | [7] -0.089 | [8] 0.048 | [9] 0.116 | [10] -0.113 | [11] 0.253 | [12] 0.191 | [13] -0.074 | [14] 0.167 | [15] -0.032

TRIM56 (UniProt Q9BRZ2)
inactive: [1] 0.033 | [2] 0.031 | [3] -0.073 | [4] -0.006 | [5] 0.017 | [6] -0.043 | [7] -0.048 | [8] 0.005 | [9] -0.01 | [10] 0.007 | [11] -0.022 | [13] -0.043 | [14] -0.016 | [15] -0.004
active: [12] -0.428

Remaining list, next part:

TRIM24 (UniProt O15164)
inactive: [1] -0.051 | [2] -0.015 | [3] -0.003 | [4] 0.022 | [5] 0.025 | [6] 0.01 | [7] -0.021 | [8] 0.022 | [9] -0.011 | [10] -0.011 | [11] 0.01 | [12] -0.098 | [13] 0.076 | [14] -0.083 | [15] -0.039

TSC22D4 (UniProt Q9Y3Q8)
inactive: [1] 0.041 | [2] 0.01 | [3] 0.031 | [4] -0.017 | [5] 0.051 | [6] -0.018 | [7] 0.004 | [8] 0 | [9] 0.002 | [10] -0.018 | [11] 0.05 | [12] 0.03 | [13] -0.042 | [14] 0.029 | [15] 0.02

TRMT5 (UniProt Q32P41)
inactive: [1] 0.018 | [2] 0.041 | [3] -0.041 | [4] 0 | [5] 0.001 | [6] -0.059 | [7] -0.016 | [8] 0.035 | [9] 0.033 | [10] -0.047 | [11] -0.027 | [12] -0.244 | [13] 0.124 | [14] -0.016 | [15] -0.015

TRAF6 (UniProt Q9Y4K3)
inactive: [1] 0.021 | [2] 0.021 | [3] 0.004 | [4] -0.026 | [5] 0.022 | [6] 0.004 | [7] -0.017 | [8] 0.026 | [9] -0.03 | [10] 0.023 | [11] 0.047 | [12] 0.054 | [13] -0.018 | [14] -0.026 | [15] -0.043

TRAPPC6A isoform 2 (UniProt O75865)
inactive: [1] 0.015 | [2] -0.09 | [3] -0.026 | [4] 0.02 | [5] -0.058 | [6] 0.006 | [7] 0.048 | [8] -0.048 | [9] -0.008 | [10] 0.076 | [11] -0.048 | [12] -0.038 | [13] 0.013 | [14] -0.002 | [15] -0.157

TRIM28 (UniProt Q13263)
inactive: [1] 0.02 | [2] -0.021 | [3] -0.005 | [4] -0.006 | [5] -0.002 | [6] -0.001 | [7] 0.013 | [8] 0.005 | [9] -0.014 | [10] 0.003 | [11] 0.005 | [12] 0.053 | [13] -0.009 | [14] 0.003 | [15] 0.012

TRMT6 (UniProt Q9UJA5)
inactive: [1] -0.016 | [2] 0 | [3] 0.033 | [4] -0.013 | [5] 0.011 | [6] 0.059 | [7] -0.007 | [8] -0.021 | [9] 0.008 | [10] 0.016 | [11] -0.019 | [12] 0.049 | [13] 0.015 | [14] 0.022 | [15] -0.015

TRIAP1 (UniProt O43715)
inactive: [1] 0.033 | [2] 0.02 | [3] 0.031 | [4] 0.117 | [5] -0.067 | [6] -0.082 | [7] 0.029 | [8] 0.037 | [9] -0.041 | [10] 0.088 | [11] 0.01 | [12] 0.077 | [13] -0.108 | [14] 0.129 | [15] -0.079

TRIP4 (UniProt Q15650)
inactive: [1] -0.03 | [2] 0.032 | [3] -0.056 | [4] 0.021 | [5] 0.002 | [6] -0.038 | [7] 0.012 | [8] 0.004 | [9] 0.002 | [10] -0.057 | [11] -0.031 | [12] -0.139 | [13] 0.011 | [14] -0.024 | [15] 0

TTC12 isoform 2 (UniProt Q9H892)
inactive: [1] -0.128 | [2] -0.073 | [3] -0.143 | [4] 0.018 | [5] 0.004 | [6] 0.033 | [7] 0.075 | [8] 0.007 | [9] -0.041 | [10] -0.073 | [11] -0.01 | [12] -0.163 | [13] 0.078 | [14] -0.058 | [15] -0.03

TTC37 (UniProt Q6PGP7)
active: [6] -0.408
inactive: [1] 0.03 | [2] -0.001 | [3] -0.163 | [4] 0.013 | [5] -0.085 | [7] -0.012 | [8] 0.065 | [9] 0.005 | [10] -0.087 | [11] 0.136 | [12] 0.153 | [13] 0.03 | [14] 0.046

TTC9C (UniProt Q8N5M4)
inactive: [1] -0.035 | [2] 0.041 | [3] 0.052 | [4] 0.098 | [5] -0.048 | [6] 0.193 | [7] 0.072 | [8] -0.001 | [9] -0.001 | [10] 0.012 | [11] 0.036 | [12] -0.018 | [13] 0 | [14] -0.007 | [15] 0.005

TRAM1 (UniProt Q15629)
inactive: [1] -0.119 | [2] 0.023 | [3] -0.047 | [4] 0.112 | [5] -0.038 | [6] -0.063 | [7] -0.031 | [8] 0.069 | [9] -0.026 | [10] 0.065 | [11] -0.185 | [12] 0.168 | [13] 0.033 | [14] 0.082 | [15] 0.044

TSPAN13 (UniProt O95857)
inactive: [1] -0.067 | [2] 0.02 | [3] -0.054 | [4] 0.121 | [5] -0.35 | [6] 0.034 | [7] -0.032 | [8] -0.126 | [9] 0.035 | [10] 0.132 | [11] -0.024 | [12] 0.104 | [13] -0.008 | [14] 0.008 | [15] -0.015
